PMC12417410

System: AtrERF001 (Akebia trifoliata)
Assay: EMSA
Details: text mentions a 'site mutation assay' but no mutant probe is described; LightShift Chemiluminescent EMSA kit per manufacturer; unlabeled competitor 10x, 50x; native PAGE; pH and temperature not stated; recombinant protein; label: 5' biotin

Sequence	binding result
TTCCAAGCCGACATGGCCGA (double strand) [AtrPE promoter probe (FP2/RP2)]	no binding
AATTTGAGTCGGCATTTTTT (double strand) [AtrACO1 promoter probe (FP1/RP1)]	no binding

Construct, isoform or probe ends are uncertain for at least one entry. Negatives hold for the conditions tested.
